Screening data

Source: PubChem BioAssay AID1159506 (NCATS, 2015).

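Genome-wide siRNA knockdown in TC32 Ewing sarcoma cells, comparing luciferase light from an NR0B1-promoter reporter with a CMV-promoter reporter 48 hours after transfection.
Each siRNA was applied at 20 nM.
A z-score of the log NR0B1-over-CMV signal, less the median of siRNAs with the same seed; more negative means a stronger specific loss of the NR0B1 reporter.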

The strongest results of the screen are mostly left out here.
Sequences are the guide (antisense) strand, without overhang.

siRNA: UUACGGAACUGGGAGAAAG
target gene: CABLES1
seed-corrected z-score: 0.01574

siRNA: UUGUGGAACAUCUCAAUGC
target gene: TUFM
seed-corrected z-score: 0.6053

siRNA: UAGGUGACGGAGUCAUCCC
target gene: MRPL38
seed-corrected z-score: -1.251

siRNA: UUUGGUAUUUGUUAAUCCC
target gene: LOC643962
seed-corrected z-score: 0.7166

siRNA: UACCAUACUCGGUCAGUCG
target gene: TEX2
seed-corrected z-score: -0.3725

siRNA: UGUAUUACAUGGAUCCAUC
target gene: NCOA1
seed-corrected z-score: -0.5724

siRNA: UUGCGAAACAAUUCGAUAU
target gene: HTRA1
seed-corrected z-score: 0.5346

siRNA: UAUCUUCACUUUCCCAUUG
target gene: C8orf34
seed-corrected z-score: 0.5124

siRNA: UACAACCACAGUGACGUGC
target gene: THNSL2
seed-corrected z-score: 0.7974

siRNA: UACUAGUCCAGGUCUAUAG
target gene: WNK1
seed-corrected z-score: -0.3108

siRNA: AGAAUUACAAGGUUCAAUG
target gene: LIG4
seed-corrected z-score: 0.2894

siRNA: UAAGAACAAGGAUUUCAUG
target gene: IFNW1
seed-corrected z-score: 0.9037

siRNA: UGCCCAUAACCUAUGGUGG
target gene: KCNK9
seed-corrected z-score: -1.238

siRNA: UGUCUACUAAGGUCUGGGC
target gene: ZNF618
seed-corrected z-score: 0.2172

siRNA: UACACGUUUCUAAAGACCC
target gene: CWF19L2
seed-corrected z-score: -0.2157

siRNA: UAUGCUAUAUAGCAAAUGC
target gene: PF4
seed-corrected z-score: 0.2338

siRNA: AAGGGUAUUUAUCAGGUAG
target gene: UBE2H
seed-corrected z-score: -0.6551

siRNA: UACACUAGCAUCAUCCACC
target gene: GALNT3
seed-corrected z-score: 0.8616

siRNA: UUGUAGUUCUUCUAUAUAC
target gene: RALGPS2
seed-corrected z-score: -0.319

siRNA: UGUCCCAUAGUCUACAUCC
target gene: THAP5
seed-corrected z-score: -0.182

siRNA: AUCAUCUUGAGGUUUUUCC
target gene: VAMP2
seed-corrected z-score: 0.9616

siRNA: UCACUGCUUACGCUAAGCC
target gene: MKX
seed-corrected z-score: -0.01523

siRNA: UCUGGAAAAAUCAUUAUCU
target gene: LPCAT1
seed-corrected z-score: 0.3628

siRNA: UGCGCUGUCUGUAUCAUGC
target gene: ATP8A1
seed-corrected z-score: -0.2471

siRNA: UCAUCUAUCCUAUCAACUC
target gene: SEC23IP
seed-corrected z-score: 0.3057

siRNA: AAAUUGCCCAGAGUUUCCA
target gene: NCCRP1
seed-corrected z-score: 1.742

siRNA: UAAACGGCAACAAAACAGA
target gene: LY6D
seed-corrected z-score: -0.0709

siRNA: UGUAAAUCUCGUUUAAAUC
target gene: SP140
seed-corrected z-score: 0.619

siRNA: UCCAGAGUGUCGAUUAUCC
target gene: MATN3
seed-corrected z-score: -1.364

siRNA: AAGAGGUUGAUGAUAAAGG
target gene: SLC11A1
seed-corrected z-score: -0.006813

siRNA: UUCUCUUGCAUUUUGGUGC
target gene: NT5C1B
seed-corrected z-score: -0.5168

siRNA: UUCCUGGAAGGUCACCUCC
target gene: RAB17
seed-corrected z-score: 0.8709

siRNA: UAAGAUACGGUGAUAGGAC
target gene: SF3B4
seed-corrected z-score: -1.461

2 of the entries, repeated:

siRNA,target gene,seed-corrected z-score
UUGUGGAACAUCUCAAUGC,TUFM,0.6053
UACACUAGCAUCAUCCACC,GALNT3,0.8616